Results are given in words; binding and its absence hold for the method and conditions named. Some results given as binding are weak or reduced against the parent protein; the word gives no strength.
Target: T1, Native pentameric human C-reactive protein (Scripps) (human), P02741
T1 chain: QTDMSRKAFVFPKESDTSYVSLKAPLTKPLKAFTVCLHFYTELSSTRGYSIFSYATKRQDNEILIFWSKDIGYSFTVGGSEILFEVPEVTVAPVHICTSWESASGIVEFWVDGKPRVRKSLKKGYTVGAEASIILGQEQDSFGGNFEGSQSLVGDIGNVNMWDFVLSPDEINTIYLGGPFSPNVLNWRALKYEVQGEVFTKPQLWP
Assay: SEC; urea dissociation in the presence of calcium (5 mM); results not shown; both purified
Settings: remark: other sources report otherwise

B1: Native pentameric human C-reactive protein (Scripps), P02741 19-224 (natural protein)
chain: T1 chain
binding: binds
